# Results are given in words; binding and its absence hold for the method and conditions named. In cells and extracts the contact can be indirect. These calls come from enrichment with a bait or labelling near it, and not all partners need be listed.
# Chains of the proteins cited; added tags and fusions are not shown.
# UniProt O95568: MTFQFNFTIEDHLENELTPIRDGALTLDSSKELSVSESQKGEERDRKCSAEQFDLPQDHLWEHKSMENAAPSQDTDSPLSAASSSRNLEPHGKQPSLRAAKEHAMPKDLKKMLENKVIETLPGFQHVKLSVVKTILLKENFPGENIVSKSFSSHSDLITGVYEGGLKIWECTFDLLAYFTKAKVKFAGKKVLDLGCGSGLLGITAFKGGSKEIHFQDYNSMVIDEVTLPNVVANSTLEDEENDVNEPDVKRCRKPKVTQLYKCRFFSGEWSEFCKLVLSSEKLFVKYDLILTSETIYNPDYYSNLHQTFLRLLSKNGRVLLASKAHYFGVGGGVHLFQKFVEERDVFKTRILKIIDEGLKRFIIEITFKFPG
# Target: Myc-tagged METTL18 (wild type) (human) (UniProt O95568)
# Test: affinity purification with mass spectrometry; anti-Myc immunoprecipitation from whole lysates of Myc- or Myc-METTL18-overexpressing MDA-MB-231 cells; SDS-PAGE, silver staining, bands cut out and analysed by LC-MS/MS
substance,measurement,value
HSP90AA1 (from UniProt P07900 1-732),binding,binds

# — paper PMC11414398
